Laboratory results: PubChem BioAssay AID493014 (National Center for Advancing Translational Sciences (NCATS), 2011)
The list shows a part of the results. Further columns of the screen follow, without active or inactive calls. Most of these compounds were active or inconclusive in the main read-out, so they are no random draw. The note in brackets gives the kind of curve behind each potency; many fits are weak.

Assay: qHTS Assay to Find Inhibitors of Chronic Active B-Cell Receptor Signaling
Conditions: ABC-DLBCL IkBa-CBG/CBR reporter, luminescence ratio (green luciferase fused to IkBa over red control in TMD8 lymphoma cells), 4 h
How it was run: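 TMD8 human ABC-DLBCL cells with doxycycline-inducible IκBα–green luciferase fusion and unfused red luciferase, in 0.5% FBS medium; compounds up to 46 uM, 4 h at 37C. Green/red luminescence ratio, filter-overlap corrected, fitted to concentration-response curves.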

[1] = measured here: CBR red luminescence, cell number
[2] = measured here: IkBa-CBG green luminescence

| Structure (SMILES) | AC50 [1] | AC50 [2] |
| --- | --- | --- |
| Nc1nonc1-n1nnc(C(=O)N/N=C/c2ccc(Cl)cc2)c1-c1ccc2c(c1)OCO2 | 2.82 µM [rising, partial curve, poor fit] | – |
| CCOc1ccc(C(=O)/C=C/Nc2ccc(S(=O)(=O)Nc3cc(C)nc(C)n3)cc2)cc1 | 35.5 µM [rising, single point] | – |
| CCCc1c(C(=O)N/N=C/c2cccs2)nnn1-c1nonc1N | 0.0891 µM [rising, full curve, poor fit] | – |
| COc1ccc(CNCCC(c2ccc(OC(C)C)cc2)c2ccccc2OC)cc1OC (stereo not drawn) | 35.5 µM [falling, single point] | – |
| Cc1cc(C(=O)NCc2csc(-c3ccccc3)n2)no1 | 2.51 µM [rising, full curve, poor fit] | – |
| C=CC[n+]1ccc(/C=C2\C=Cc3cc(C)ccc3N2CC)c2ccccc21 | – | 22.4 µM [rising, partial curve, poor fit] |
| Cc1c(N2C(=O)/C(=C/C3CC=CCC3)SC2=S)c(=O)n(-c2ccccc2)n1C (stereo not drawn) | 10 µM [falling, partial curve] | – |
| COc1ccc(CNC2CCSc3ccccc32)cc1OC (stereo not drawn) | 5.62 µM [rising, single point] | – |
| O=C(O)c1ccc(OCCCCCCOC2CCCCO2)cc1 (stereo not drawn) | 10 µM [rising, single point] | – |
| c1ccc(-c2cccc(-c3ccccc3)n2)cc1 | 35.5 µM [rising, partial curve, poor fit] | – |
| COCCn1c(SCC(=O)c2c(N)n(C3CC3)c(=O)[nH]c2=O)nnc1-c1cccc(C)c1 | 29.1 µM [rising, single point] | – |
| C=CCSc1nnc2c(n1)OC=Nc1ccc(Br)cc1-2 | 32.6 µM [falling, single point] | – |
| COc1ccccc1NC(=O)c1sc2nc(N3CCOCC3)c3c(c2c1N)CCCC3 | 5.62 µM [rising, single point] | – |
| CC(=O)N1CCC2(CC1)C/C(=N\NC(=S)Nc1ccccc1F)c1cc(O)ccc1O2 | 31.6 µM [falling, single point] | – |
| O=C1C(=O)c2ccc(-c3ccccc3)cc2-c2ccccc21 | 5.8 µM [falling, full curve, poor fit] | – |
| COc1ccc(Nc2nc(C)nc3c2nnn3Cc2ccccc2Cl)c(OC)c1 | 15.8 µM [rising, single point] | – |
| O=C1NC(c2ccccc2)CCO1 (stereo not drawn) | 1.58 µM [rising, full curve, poor fit] | – |
| CCc1nnc(NC(=O)c2cc(Cl)ccn2)s1 | 35.5 µM [falling, single point] | 25.1 µM [falling, single point] |
| CC(C)(C)[C@H]1C=C(C(=O)NCc2nc3ccccc3[nH]2)O[C@@H](OCc2ccc(CO)cc2)C1 | 35.5 µM [falling, single point] | – |
| CCNC(=O)COC(=O)c1cc(C)n(-c2ccccc2)c1C | 1.12 µM [rising, full curve, poor fit] | – |
| COc1ccc(C(=O)Nc2ccccc2C(=O)Nc2ccccc2C(=O)O)cc1 | 12.6 µM [falling, single point] | – |

| Structure (SMILES) | AC50 [1] | AC50 [2] |
| --- | --- | --- |
| COc1ccccc1NC(=O)c1ccccc1NC(=O)c1ccccn1 | 2.59 µM [falling, full curve, poor fit] | – |
| O=C(NCc1ccc2c(c1)OCO2)c1ccc(CSCc2ccc(Cl)cc2)o1 | 29.1 µM [falling, single point] | – |
| CC(Oc1ccc(Br)cc1)C(=O)Nc1cc(Cl)ccc1N1CCN(C)CC1 (stereo not drawn) | 23.1 µM [falling, single point] | – |
| CCCn1nc(NC(=O)c2cccs2)c2cc3cc(C)ccc3nc21 | 7.94 µM [falling, partial curve] | – |
| O=c1[nH]c(/C=C/c2ccccc2Cl)c([N+](=O)[O-])c(=O)[nH]1 | 22.4 µM [falling, single point] | – |
| Cc1ccc(-c2cc(C(F)F)n3ncc(C(=O)N4CCN(c5ccccn5)CC4)c3n2)cc1 | 0.058 µM [rising, full curve, poor fit] | – |
| Cc1nn(C)cc1C(=O)NNC(=S)Nc1ccc(Cl)cc1 | 20 µM [falling, partial curve, poor fit] | – |
| CC(NC(=O)c1ccc(F)cc1Cl)C1CC2CCC1C2 (stereo not drawn) | 35.5 µM [rising, single point] | – |
| CS(=O)(=O)c1nc(-c2ccccc2)cc(C(F)(F)F)n1 | 2.59 µM [falling, full curve] | 2.91 µM [rising, full curve] |
| Cc1ccc(C(=O)NCc2ccco2)cc1S(=O)(=O)Nc1cccc(Cl)c1 | 0.731 µM [falling, partial curve, poor fit] | 0.231 µM [rising, full curve, poor fit] |
| O=C(CCSCc1ccccc1F)NCc1ccc(F)cc1 | 10 µM [rising, partial curve] | – |
| COc1ccc(C2CC(O)(C(C)(C)O)NO2)cc1 (stereo not drawn) | 10 µM [falling, single point] | – |
| Oc1ccccc1-c1nnc(-c2ccc(C(F)(F)F)cc2)o1 | 5.62 µM [rising, partial curve, poor fit] | – |
| CCOC(=O)C1=C(C)NC(C)=C(C(=O)OCC)C1c1cc(N)ccc1OC(F)F | 29.1 µM [falling, single point] | – |
| OC(CC1CC12c1ccccc1-c1ncccc12)(c1ccccc1)c1ccccc1 (stereo not drawn) | 10.3 µM [falling, partial curve] | 16.4 µM [rising, partial curve, poor fit] |
| Cc1cc(C(=O)CSc2nnc(-c3cccnc3)n2-c2ccccc2F)c(C)n1CC1CCCO1 (stereo not drawn) | 0.651 µM [rising, full curve, poor fit] | – |
| COc1ccc(CCN(C)C(=O)CSc2ncnc3sccc23)cc1OC | 3.16 µM [rising, partial curve, poor fit] | – |
| Cc1ccc(S(=O)(=O)CCC(=O)OC(C)C(=O)N2CCc3ccccc32)cc1 (stereo not drawn) | 6.51 µM [falling, partial curve, poor fit] | – |
| COc1cc(CNC2CCCCCC2)cc(OC)c1 | 29.1 µM [rising, single point] | – |
| Cc1ccc(S(=O)(=O)N2CCCCC2)cc1NC(=O)COC(=O)c1cccn1C | 3.26 µM [falling, single point] | – |
| Cc1nc(C)c(C(=O)C2=C(O)C(=O)N(CCN(C)C)C2c2ccccc2)s1 (stereo not drawn) | 0.00461 µM [falling, full curve, poor fit] | – |

Exported tab-delimited: 2 of the compounds above
Structure (SMILES)	AC50 [1]	AC50 [2]
Cc1ccc(-c2cc(C(F)F)n3ncc(C(=O)N4CCN(c5ccccn5)CC4)c3n2)cc1	0.058 µM [rising, full curve, poor fit]	–
Cc1nn(C)cc1C(=O)NNC(=S)Nc1ccc(Cl)cc1	20 µM [falling, partial curve, poor fit]	–

Next entries

| Structure (SMILES) | AC50 [1] | AC50 [2] |
| --- | --- | --- |
| CC(=O)N1CCc2cc(C(=O)CN3CCN(c4cccc(Cl)c4)CC3)ccc21 | 5.01 µM [rising, partial curve, poor fit] | – |
| Oc1ccc(Nc2nnc(-c3ccc(O)cc3)c3ccccc23)cc1 | – | 5.01 µM [falling, partial curve, poor fit] |
| COc1ccccc1NC(=O)CSC1=Nc2ccccc2C2=NC(CC(=O)NCc3cccs3)C(=O)N12 (stereo not drawn) | 17.8 µM [falling, single point] | – |
| Cc1ccccc1NC(=S)N=Nc1c(O)n(C)c2ccc(S(=O)(=O)N3CCOCC3)cc12 | – | 3.66 µM [falling, full curve] |
| CCOC(=O)COc1cc(OCC(=O)OCC)c2c3c(c(=O)oc2c1)CCCC3 | 3.16 µM [falling, full curve, poor fit] | – |
| O=C(Nc1ccc(NC(=O)c2cccs2)c(Cl)c1)c1ccco1 | 22.4 µM [falling, single point] | – |
| CCNC(=S)NNC(=O)c1ccc(OC(F)F)cc1 | 29.1 µM [falling, single point] | – |
| CCCCN(C(=O)CNC(=O)c1cccs1)C(C(=O)NC1CCCC1)c1ccncc1 (stereo not drawn) | 22.4 µM [falling, single point] | – |
| COc1ccc(C)cc1NC(=O)c1cc2ccccc2cc1OCC(=O)NCc1ccco1 | 2.31 µM [falling, partial curve] | – |
| COc1ccc(CC(=O)N/N=C/c2ccc(-c3cccc(C(=O)O)c3)o2)cc1OC | 35.5 µM [falling, single point] | – |
| Cc1cccc2c(=O)n3c(nc12)CCCCC3 | 29.1 µM [rising, single point] | – |
| CCOc1ccc(OCC)c(NC(=O)Nc2ccc3c(c2)N(C)C(=O)CS3)c1 | 23.1 µM [falling, single point] | – |
| NC(=O)CSc1nc2cc(Cl)ccc2c(=O)n1C1CCCCC1 | 25.1 µM [rising, single point] | – |
| CCCc1ccc(/C=C2\C(=O)c3ccccc3C(O)=C2C(=O)OCC)cc1 | – | 29.1 µM [falling, single point] |
| C=CCNC(=S)NN=C1CCCCCCC1 | 5.01 µM [falling, partial curve] | 5.01 µM [falling, full curve] |
| Cc1cc(NC(=O)c2cc(-c3cccs3)nc3ccccc23)no1 | 5.8 µM [falling, partial curve, poor fit] | – |
| Cc1ccc(N=C2NC(=O)/C(=C/c3cccn3C)S2)cc1C | 12.6 µM [falling, partial curve, poor fit] | – |
| Cc1ccc(Cn2ccc(NC(=O)c3nn(C)cc3[N+](=O)[O-])n2)cc1 | 9.2 µM [falling, partial curve, poor fit] | – |
| CSc1ccc(/C=C(/Sc2nnc(-c3ccccc3)o2)C(=O)O)cc1 | 35.5 µM [rising, single point] | – |
| c1ccc(Cc2nnc3sc(-c4cccnc4)nn23)cc1 | 2.31 µM [rising, single point] | – |
| COc1ccccc1NC(=O)C(=O)NCCC1CCCCN1S(=O)(=O)c1cccs1 (stereo not drawn) | 0.517 µM [falling, full curve] | – |

2 entries from above in a different format:
Structure (SMILES)	AC50 [1]	AC50 [2]
CCc1nnc(NC(=O)c2cc(Cl)ccn2)s1	35.5 µM [falling, single point]	25.1 µM [falling, single point]
O=C(NCc1ccc2c(c1)OCO2)c1ccc(CSCc2ccc(Cl)cc2)o1	29.1 µM [falling, single point]	–
